# Some of the results follow.
# B1: SLLPI (Homo sapiens), Q8IXA5 (protein)
# chain: MVSALRGAPLIRVHSSPVSSPSVSGPRRLVSCLSSQSSALSQSGGGSTSAAGIEARSRALRRRWCPAGIMLLALVCLLSCLLPSSEAKLYGRCELARVLHDFGLDGYRGYSLADWVCLAYFTSGFNAAALDYEADGSTNNGIFQINSRRWCSNLTPNVPNVCRMYCSDLLNPNLKDTVICAMKITQEPQGLGYWEAWRHHCQGKDLTEWVDGCDF
# How the values were obtained:
# Assay in all cases: glycan array binding signal (z-score within array); higher = stronger binding
# Conditions in all cases: glycan notation: IUPAC condensed, linker removed
# [1] = biological target: Gal(a1-4)GlcNAc
# Method in brief: (§1)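 Arrays were curated from the Consortium for Functional Glycomics database, 3228 in total, and kept only where the protein sequence was available. Binding is expressed as a within-array Z-score. This score was averaged across arrays of the same protein sequence at different concentrations or buffers and across linkers, and negative values can be read as non-binding.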
# [2] = biological target: Gal(a1-6)Glc
# Method in brief: as §1
# [3] = biological target: Gal(b1-2)Gal
# Method in brief: as §1
# [4] = biological target: Gal(b1-3)Gal
# Method in brief: as §1
# [5] = biological target: Gal(b1-3)Gal(b1-4)GlcNAc
# Method in brief: as §1
# [6] = biological target: Gal(b1-3)GalNAc
# Method in brief: as §1
# [7] = biological target: Gal(b1-3)GalNAc(b1-3)Gal(a1-4)Gal(b1-4)Glc
# Method in brief: as §1
# [8] = biological target: Gal(b1-3)GalNAc(b1-4)Gal(b1-4)Glc
# Method in brief: as §1
# [9] = biological target: Gal(b1-3)GalNAc(b1-4)[Neu5Ac(a2-3)]Gal(b1-4)Glc
# Method in brief: as §1
# [10] = biological target: Gal(b1-3)GlcNAc
# Method in brief: as §1
# [11] = biological target: Gal(b1-3)GlcNAc(b1-2)Man(a1-3)[Gal(b1-3)GlcNAc(b1-2)Man(a1-6)]Man(b1-4)GlcNAc(b1-4)GlcNAc
# Method in brief: as §1
# [12] = biological target: Gal(b1-3)GlcNAc(b1-3)Gal(b1-3)GlcNAc
# Method in brief: as §1
# [13] = biological target: Gal(b1-3)GlcNAc(b1-3)Gal(b1-4)Glc
# Method in brief: as §1
# [14] = biological target: Gal(b1-3)GlcNAc(b1-3)Gal(b1-4)GlcNAc
# Method in brief: as §1
# [15] = biological target: Gal(b1-3)[Fuc(a1-4)]GlcNAc
# Method in brief: as §1
# [16] = biological target: Gal(b1-3)[Fuc(a1-4)]GlcNAc(b1-3)Gal(b1-3)[Fuc(a1-4)]GlcNAc
# Method in brief: as §1
# [17] = biological target: Gal(b1-3)[Fuc(a1-4)]GlcNAc(b1-3)Gal(b1-4)GlcNAc
# Method in brief: as §1
# [18] = biological target: Gal(b1-3)[Fuc(a1-4)]GlcNAc(b1-3)Gal(b1-4)[Fuc(a1-3)]GlcNAc
# Method in brief: as §1
# [19] = biological target: Gal(b1-3)[GlcNAc(b1-6)]GalNAc
# Method in brief: as §1
# [20] = biological target: Gal(b1-3)[Neu5Ac(a2-6)]GalNAc
# Method in brief: as §1
# [21] = biological target: Gal(b1-3)[Neu5Ac(a2-6)]GlcNAc(b1-6)Gal(b1-4)Glc
# Method in brief: as §1
# [22] = biological target: Gal(b1-3)[Neu5Ac(b2-6)]GalNAc
# Method in brief: as §1
# [23] = biological target: Gal(b1-4)GalNAc(a1-3)[Fuc(a1-2)]Gal(b1-4)GlcNAc
# Method in brief: as §1
# [24] = biological target: Gal(b1-4)GalNAc(b1-3)[Fuc(a1-2)]Gal(b1-4)GlcNAc
# Method in brief: as §1
# [25] = biological target: Gal(b1-4)Glc
# Method in brief: as §1
# [26] = biological target: Gal(b1-4)Glc6S
# Method in brief: as §1
# [27] = biological target: Gal(b1-4)GlcNAc
# Method in brief: as §1
# [28] = biological target: Gal(b1-4)GlcNAc(a1-6)Gal(b1-4)GlcNAc
# Method in brief: as §1
# [29] = biological target: Gal(b1-4)GlcNAc(b1-2)Man(a1-3)[Gal(b1-4)GlcNAc(b1-2)Man(a1-6)]Man(b1-4)GlcNAc(b1-4)GlcNAc
# Method in brief: as §1
# [30] = biological target: Gal(b1-4)GlcNAc(b1-3)Gal(b1-3)GlcNAc
# Method in brief: as §1
# [31] = biological target: Gal(b1-4)GlcNAc(b1-3)Gal(b1-4)Glc
# Method in brief: as §1
# [32] = biological target: Gal(b1-4)GlcNAc(b1-3)Gal(b1-4)GlcNAc
# Method in brief: as §1
# [33] = biological target: Gal(b1-4)GlcNAc(b1-3)Gal(b1-4)GlcNAc(b1-3)Gal(b1-4)GlcNAc
# Method in brief: as §1
# [34] = biological target: Gal(b1-4)GlcNAc(b1-3)Gal(b1-4)[Fuc(a1-3)]GlcNAc(b1-3)Gal(b1-4)[Fuc(a1-3)]GlcNAc
# Method in brief: as §1
# [35] = biological target: Gal(b1-4)GlcNAc(b1-3)GalNAc
# Method in brief: as §1
# [36] = biological target: Gal(b1-4)GlcNAc(b1-3)[Gal(b1-4)GlcNAc(b1-6)]Gal(b1-4)GlcNAc
# Method in brief: as §1
# [37] = biological target: Gal(b1-4)GlcNAc(b1-3)[GlcNAc(b1-6)]Gal(b1-4)GlcNAc
# Method in brief: as §1
# [38] = biological target: Gal(b1-4)GlcNAc(b1-6)Gal(b1-4)GlcNAc
# Method in brief: as §1
# [39] = biological target: Gal(b1-4)GlcNAc(b1-6)Gal(b1-4)GlcNAc(b1-6)GalNAc
# Method in brief: as §1
# [40] = biological target: Gal(b1-4)GlcNAc(b1-6)GalNAc
# Method in brief: as §1
# [41] = biological target: Gal(b1-4)GlcNAc(b1-6)[Gal(b1-3)]GalNAc
# Method in brief: as §1
# [42] = biological target: Gal3S(b1-3)GalNAc
# Method in brief: as §1
# [43] = biological target: Gal3S(b1-3)GlcNAc
# Method in brief: as §1
# [44] = biological target: Gal3S(b1-3)[Fuc(a1-4)]GlcNAc
# Method in brief: as §1
# [45] = biological target: Gal3S(b1-4)Glc
# Method in brief: as §1
binder,measurement,setting,value
B1,glycan array binding signal (z-score),[1],-0.139
same,glycan array binding signal (z-score),[2],-0.362
same,glycan array binding signal (z-score),[3],0.717
same,glycan array binding signal (z-score),[4],-0.241
same,glycan array binding signal (z-score),[5],-0.292
same,glycan array binding signal (z-score),[6],-0.23
same,glycan array binding signal (z-score),[7],-0.26
same,glycan array binding signal (z-score),[8],-0.063
same,glycan array binding signal (z-score),[9],-0.386
same,glycan array binding signal (z-score),[10],-0.29
same,glycan array binding signal (z-score),[11],0.777
same,glycan array binding signal (z-score),[12],-0.289
same,glycan array binding signal (z-score),[13],0.044
same,glycan array binding signal (z-score),[14],-0.443
same,glycan array binding signal (z-score),[15],-0.111
same,glycan array binding signal (z-score),[16],-0.295
same,glycan array binding signal (z-score),[17],-0.442
same,glycan array binding signal (z-score),[18],-0.252
same,glycan array binding signal (z-score),[19],-0.531
same,glycan array binding signal (z-score),[20],-0.242
same,glycan array binding signal (z-score),[21],-0.605
same,glycan array binding signal (z-score),[22],-0.357
same,glycan array binding signal (z-score),[23],-0.332
same,glycan array binding signal (z-score),[24],0.024
same,glycan array binding signal (z-score),[25],-0.156
same,glycan array binding signal (z-score),[26],0.078
same,glycan array binding signal (z-score),[27],-0.257
same,glycan array binding signal (z-score),[28],-0.567
same,glycan array binding signal (z-score),[29],-0.082
same,glycan array binding signal (z-score),[30],-0.37
same,glycan array binding signal (z-score),[31],-0.355
same,glycan array binding signal (z-score),[32],-0.461
same,glycan array binding signal (z-score),[33],-0.143
same,glycan array binding signal (z-score),[34],-0.327
same,glycan array binding signal (z-score),[35],0.201
same,glycan array binding signal (z-score),[36],-0.17
same,glycan array binding signal (z-score),[37],0.438
same,glycan array binding signal (z-score),[38],-0.252
same,glycan array binding signal (z-score),[39],-0.354
same,glycan array binding signal (z-score),[40],-0.215
same,glycan array binding signal (z-score),[41],-0.468
same,glycan array binding signal (z-score),[42],-0.245
same,glycan array binding signal (z-score),[43],-0.338
same,glycan array binding signal (z-score),[44],-0.205
same,glycan array binding signal (z-score),[45],-0.084

# As a short view, part of the list above:
binder,measurement,setting,value
B1,glycan array binding signal (z-score),[31],-0.355
same,glycan array binding signal (z-score),[32],-0.461

# From the supplement of paper PMC8728848
